Test results published in patent US20100009934A1, “BETA ADRENERGIC RECEPTOR AGONISTS FOR THE TREATMENT OF B-CELL PROLIFERATIVE DISORDERS” (CombinatoRx, Incorporated, priority 2008, published 2010).
Some results were stated once for a whole list of compounds, not compound by compound.

Assays:
[1] = system: RPMI-8226 multiple myeloma (MM) xenograft; settings: 1 mg/kg bortezomib IV Q3D×6; dexamethasone 1 mg/kg IP QD×36; vs vehicle
Procedure: Dexamethasone was administered by intraperitoneal (IP) injection daily for thirty-six treatments (QD×36). Bortezomib was injected intravenously (IV) every third day for six treatments (Q3D×6).
Group 1—Vehicle (90% PBS+10% EtOH)
Significant endpoints included mean tumor growth inhibition (TGI) or regression, animal weight loss, and potential toxicity. […] Animals were implanted with cancer cells harvested from tissue culture and allowed to establish tumors in SCID mice. Treatment initiated when the mean tumor volume reached 137 mm^3 in size.

MM.1S cells = test: Annexin V / propidium iodide apoptosis assay, MM.1S; assay type: cell-based, human; settings: 20 nM dexamethasone, 48 hours (FIG. 1)
Procedure: Effects on cell viability were determined by measuring the percent of cells that were annexin V positive (an early marker for apoptosis) and by measuring the percent of cells propidium iodide (PI) positive, an indicator that cellular membranes are compromised and a marker of cell death.

Q: `CC(C)C[C@H](NC(=O)[C@H](Cc1ccccc1)NC(=O)c1cnccn1)B(O)O` [bortezomib] was tested. Which “tumor growth inhibition (TGI)” value [1] did it give?
A: > 100%

Q: `C[C@@H]1C[C@H]2[C@@H]3CCC4=CC(=O)C=C[C@]4(C)[C@@]3(F)[C@@H](O)C[C@]2(C)[C@@]1(O)C(=O)CO` [dexamethasone] was tested. Which “cells annexin V positive” value (MM.1S cells) did it give?
A: < 10%

Q: And the “tumor growth inhibition (TGI)” value [1]?
A: > 100%
